Patent US20230063230A1, “NURR1 RECEPTOR MODULATORS” (priority 2019, published 2023)
At least one compound was matched to its structure with a doubt left.

Amino acid sequences for entries named in this document (tags omitted). Residues count along the entry.
UniProt P43354, 360-595 limits assumed: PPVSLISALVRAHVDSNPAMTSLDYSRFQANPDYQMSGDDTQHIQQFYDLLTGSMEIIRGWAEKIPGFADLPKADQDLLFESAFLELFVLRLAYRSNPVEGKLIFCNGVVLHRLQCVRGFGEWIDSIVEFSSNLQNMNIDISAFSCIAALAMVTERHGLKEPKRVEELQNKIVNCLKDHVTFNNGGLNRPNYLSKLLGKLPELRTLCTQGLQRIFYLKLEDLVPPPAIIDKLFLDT
UniProt P43354, 328-598: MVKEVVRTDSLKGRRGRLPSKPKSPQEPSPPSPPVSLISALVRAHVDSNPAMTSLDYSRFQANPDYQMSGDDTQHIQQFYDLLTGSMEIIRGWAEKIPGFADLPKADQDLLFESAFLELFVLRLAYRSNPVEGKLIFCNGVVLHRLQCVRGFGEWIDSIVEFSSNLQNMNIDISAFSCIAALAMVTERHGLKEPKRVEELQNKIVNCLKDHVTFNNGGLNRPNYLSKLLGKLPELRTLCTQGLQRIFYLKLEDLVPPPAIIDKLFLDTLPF

Key:
Nurr1 [1] = biological target: T1, Nurr1 (Homo sapiens, UniProt P43354); assay: Binding SPR; conditions: analogs of compound 87
Nurr1 in MN9D = assay: qPCR MN9D Nurr1; assay type: cell-based; conditions: cpds tested at 10 μM, analogs of compound 87
Vmat2 in MN9D = assay type: cell-based; conditions: cpds tested at 10 μM, analogs of compound 87
Th in MN9D = assay: qPCR MN9D Th; assay type: cell-based; conditions: cpds tested at 10 μM, analogs of compound 87
Nurr1 [2] = biological target: T1, Nurr1; assay: Luciferase cellular assay; assay type: cell-based; set-up: expressed in transfected cells; host or cells: SK-N-BE(2)C cells (ATCC CRL-2268); conditions: cpds tested at 10 μM; analogs of compound 87
Nurr1 [3] = biological target: T1, Nurr1; assay: Binding MST; conditions: analogs of compound 87
Pitx3 in MN9D = assay: qPCR MN9D Pitx3; assay type: cell-based; conditions: cpds tested at 10 μM, analogs of compound 87

CC(=O)Nc1cc(Cl)cc(C(=O)NC(C)(C)c2cn(CCO)nn2)c1 [SP 182, 3-acetamido—S—Chloro-N-(2-(1-(2-hydroxyethyl)-1H-1,2,3-triazol-4-v1)propan-2-v1)benzamide]
Binding SPR (Nurr1 [1]): − | qPCR MN9D Nurr1 (Nurr1 in MN9D): − | qPCR MN9D Vmat2 (Vmat2 in MN9D): − | qPCR MN9D Th (Th in MN9D): − | Luciferase (Nurr1 [2]): − | Binding MST (Nurr1 [3]): − | qPCR MN9D Pitx3 (Pitx3 in MN9D): −

CSSCCn1cc(C(C)(C)NC(=O)c2cc(Cl)cc(NC(C)=O)c2)nn1 [SP 183]
qPCR MN9D Nurr1 (Nurr1 in MN9D): − | qPCR MN9D Vmat2 (Vmat2 in MN9D): − | qPCR MN9D Th (Th in MN9D): − | Luciferase (Nurr1 [2]): + | qPCR MN9D Pitx3 (Pitx3 in MN9D): +
